According to the supplement of paper PMC4962491:
Counter-ions that a name gives are not always drawn. ± gives the standard deviation of the averaged measurements. This is a selection; strong and weak results do not stand in their true shares. Most values lie within the scatter of the assay; repeated measurements hardly agree.

System: FaDu
Test: mitochondrial oxygen consumption rate normalised to cell number, Z score over the library; higher = higher oxygen consumption (negative = OCR reduction)
Conditions: treatment time 24 h, assay medium: 5 mM galactose, 5 mM pyruvate, 4 mM glutamine
Method: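 Primary screen: FaDu cells were incubated 24 h with Pharmakon 1600 / TDI oncology set compounds at 2 or 10 uM. Mitochondrial-specific OCR (basal minus 2 uM antimycin A) was measured on a Seahorse XF96 in assay medium with 5 mM galactose, 5 mM pyruvate and 4 mM glutamine, then corrected for Hoechst cell number and expressed as a Z score […]. Compounds that cut cell number by >66% were excluded. Two repeats.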

| Structure (SMILES) | mitochondrial oxygen consumption rate normalised (2 µM) | mitochondrial oxygen consumption rate normalised (10 µM) |
| --- | --- | --- |
| Nc1nc(N)nc(NC2CC2)n1 | -0.138 ± 0.52 |  |
| CN1[C@@H]2CC[C@H]1C[C@@H](OC(=O)[C@H](CO)c1ccccc1)C2 | -0.902 ± 0.12 |  |
| COc1ccc2c(c1)[C@]13CCCC[C@@H]1[C@H](C2)N(C)CC3 | 0.183 ± 1.4 |  |
| C=C[C@H]1CN2CC[C@H]1C[C@H]2[C@H](O)c1ccnc2ccccc12 | -0.108 ± 0.25 |  |
| C=CC[C@]1(O)CC[C@H]2[C@@H]3CCC4=CC(=O)CCC4=C3C=C[C@@]21C | -0.442 ± 0.19 |  |
| C1CCc2nnnn2CC1 | -0.656 ± 0.029 | -0.625 ± 0.34 |
| CC(Cc1ccc(O)cc1)NCC(O)c1cc(O)cc(O)c1 (stereo not drawn) | 1.48 ± 0.59 |  |
| C=C[C@H]1CN2CC[C@H]1C[C@@H]2[C@@H](O)c1ccnc2ccccc12 | -0.0916 ± 0.46 |  |
| C=CCN=C=S | 0.451 ± 0.0065 |  |
| CC(C)CC(N(C)C)C1(c2ccc(Cl)cc2)CCC1 (stereo not drawn) | 0.42 ± 1.2 |  |
| O=C([O-])c1ccccc1-c1c2cc(Br)c(=O)cc-2oc2[c]([Hg+])c([O-])c(Br)cc12.[Na+].[Na+].[OH-] | 1.13 ± 0.65 |  |
| COP(=S)(OC)Oc1ccc(SC)c(C)c1 | 0.484 ± 0.49 |  |
| O=c1[nH]c2ccccc2n1CCCN1CCC(n2c(=O)[nH]c3cc(Cl)ccc32)CC1 | 0.1 ± 0.46 | -0.0948 ± 0.24 |
| C#C[C@]1(O)CC[C@H]2[C@@H]3CCC4=CC(=O)CC[C@]4(C)[C@H]3CC[C@@]21C | -1.02 ± 0.4 |  |
| CC(C)[N+](C)(CCC(C(N)=O)(c1ccccc1)c1ccccc1)C(C)C | -1.5 ± 0.83 |  |
| O=C([O-])Cc1ccccc1.[Na+] | 0.337 ± 0.27 |  |
| Cn1c(CCCC(=O)O)nc2cc(N(CCCl)CCCl)ccc21 [Bendamustine HCl] | 0.48 ± 0.28 |  |
| CN[C@@H]1[C@@H](O)[C@@H](O[C@@H]2[C@@H](O)[C@H](O[C@H]3O[C@H](CN)CC[C@H]3N)[C@@H](N)C[C@H]2N)OC[C@]1(C)O.CN[C@@H]1[C@@H](O)[C@@H](O[C@@H]2[C@@H](O)[C@H](O[C@H]3O[C@H]([C@@H](C)N)CC[C@H]3N)[C@@H](N)C[C@H]2N)OC[C@]1(C)O.CN[C@@H]1[C@@H](O)[C@@H](O[C@@H]2[C@@H](O)[C@H](O[C@H]3O[C@H]([C@@H](C)NC)CC[C@H]3N)[C@@H](N)C[C@H]2N)OC[C@]1(C)O | -0.239 ± 0.74 |  |
| CN1CCN(C(=O)O[C@H]2c3nccnc3C(=O)N2c2ccc(Cl)cn2)CC1 | -0.274 ± 1 | -0.823 ± 0.029 |
| NC(=O)c1cc([N+](=O)[O-])cc([N+](=O)[O-])c1 | -1.22 ± 1.4 |  |
| O=C1CC[C@@]2(O)[C@H]3Cc4ccc(O)c5c4[C@@]2(CCN3CC2CC2)[C@H]1O5 | 0.973 ± 1.2 |  |
| NCC(CC(=O)O)c1ccc(Cl)cc1 (stereo not drawn) | 0.559 ± 0.74 |  |
| CCOC(=O)CC(SP(=S)(OC)OC)C(=O)OCC (stereo not drawn) | 1.02 ± 1.3 |  |
| CC(N)Cc1ccc(O)cc1 (stereo not drawn) | -0.132 ± 0.17 |  |
| CC(NC(C)(C)C)C(=O)c1cccc(Cl)c1 (stereo not drawn) | 1.28 ± 0.36 |  |

Record cards, as listed above.
COc1ccc2c(c1)[C@]13CCCC[C@@H]1[C@H](C2)N(C)CC3 as listed: mitochondrial oxygen consumption rate normalised (2 µM): 0.183 ± 1.4
O=C([O-])Cc1ccccc1.[Na+] as listed: mitochondrial oxygen consumption rate normalised (2 µM): 0.337 ± 0.27

Next results:

| Structure (SMILES) | mitochondrial oxygen consumption rate normalised (2 µM) | mitochondrial oxygen consumption rate normalised (10 µM) |
| --- | --- | --- |
| O=C(O)CCCO | 0.441 ± 0.14 |  |
| NCc1cccnc1 | -0.0792 ± 0.3 |  |
| C=C/C=C\CC1=C(C)[C@@H](OC(=O)[C@@H]2[C@@H](/C=C(\C)C(=O)OC)C2(C)C)CC1=O.C=C/C=C\CC1=C(C)[C@@H](OC(=O)[C@@H]2[C@@H](C=C(C)C)C2(C)C)CC1=O | -0.533 ± 1.1 |  |
| CN1[C@@H]2C[C@@H](OC(=O)[C@H](CO)c3ccccc3)C[C@H]1[C@@H]1O[C@@H]12 | 0.405 ± 0.51 |  |
| O=[N+]([O-])C(Br)(CO)CO | -0.891 ± 0.095 |  |
| CN1C[C@H](C(=O)N[C@]2(C)O[C@@]3(O)[C@@H]4CCCN4C(=O)[C@H](Cc4ccccc4)N3C2=O)C=C2c3cccc4[nH]cc(c34)C[C@H]21 | 0.0928 ± 0.47 |  |
| [O-][n+]1ccccc1[S-].[O-][n+]1ccccc1[S-].[Zn+2] | 0.46 ± 0.59 |  |
| C=CCN1CC[C@]23c4c5ccc(O)c4O[C@H]2C(=O)CC[C@@]3(O)[C@H]1C5 | 0.369 ± 2 |  |
| O=c1n(Cl)c(=O)n(Cl)c(=O)n1Cl | 0.743 ± 0.18 |  |
| COP(=O)(OC)C(O)C(Cl)(Cl)Cl (stereo not drawn) | 0.185 ± 0.23 |  |
| COP(=O)(OC)OC=C(Cl)Cl | -0.149 ± 0.52 |  |
| S=C=NCc1ccccc1 | 0.712 ± 0.78 | -4.7 ± 0.66 |
| C[C@]12CCC(=O)C=C1C=C[C@@H]1[C@@H]2CC[C@@]2(C)[C@H]1CC[C@@]2(O)CCC(=O)O | -0.167 ± 0.077 |  |
| Cc1cccc(C)c1NC(=O)CN1CCCC1=O | 0.485 ± 1.2 |  |
| CC[C@@H](C(=O)[C@@H](C)[C@@H](O)[C@H](C)[C@@H]1O[C@@H]([C@@H](CC)C(=O)O)CC[C@@H]1C)[C@H]1O[C@]2(C=C[C@@H](O)[C@]3(CC[C@@](C)([C@H]4CC[C@](O)(CC)[C@H](C)O4)O3)O2)[C@H](C)C[C@@H]1C | -0.953 ± 0.61 |  |
| NCC(O)c1ccc(O)cc1 (stereo not drawn) | -1.19 ± 0.1 |  |
| Cc1ccc(/N=C/N(C)/C=N/c2ccc(C)cc2C)c(C)c1 | -0.22 ± 0.011 |  |
| O=c1c2ccccc2[se]n1-c1ccccc1 | -0.849 ± 0.56 |  |
| c1ccc2c(c1)Nc1ccccc1S2 | 1.1 ± 0.42 |  |
| C[C@]12CC[C@H]3[C@@H](CCC4=CC(=O)CC[C@@]43C)[C@@H]1CC[C@@H]2O | 0.59 ± 0.5 |  |
| C[C@]12CC[C@@H]3c4ccc(OC(=O)N(CCCl)CCCl)cc4CC[C@H]3[C@@H]1CC[C@@H]2OP(=O)(O)O [Estramustine phosphate] | 1.09 ± 0.15 |  |
| CC[C@@H](CO)NC(=O)[C@@H]1C=C2c3cccc4c3c(cn4C)C[C@H]2N(C)C1 | -0.207 ± 0.096 |  |
| COc1cc2c(c(OC)c1OC)-c1ccc(OC)c(=O)cc1[C@@H](NC(C)=O)CC2 | -0.775 ± 1.5 |  |
| C[C@]12CC[C@H](O)CC1=CC[C@@H]1[C@@H]2CC[C@]2(C)C(=O)CC[C@@H]12 | 0.104 ± 0.14 |  |
